Results are given in words; binding and its absence hold for the method and conditions named. Binding seen in cells or lysates may run through a third protein. Some entries that bind do so weakly or less than the wild type.
Legend:
FLAG-PARP-2 [1] = biological target: FLAG-PARP-2 (UniProt Q9UGN5); experiment: co-IP; FLAG-PARP-2 immunoprecipitated from whole cellular extract with anti-FLAG M2 on protein G magnetic beads; control normal mouse IgG; partners detected by western blot
[2] = biological target: Poly(ADP-ribose) polymerase 1 (PARP-1) (human (endogenous in SK-N-SH or HeLa)) (UniProt P09874); experiment: co-IP; PARP-1 immunoprecipitated from whole cellular extract with F1-23 on protein G magnetic beads; control normal mouse IgG; partners detected by western blot
[3] = biological target: Poly(ADP-ribose) polymerase 1 (PARP-1) (human (endogenous in SK-N-SH or HeLa)) (UniProt P09874); experiment: co-IP; data not shown: PARP-1 immunoprecipitates probed by western blot; control immunoprecipitate beside it
FLAG-PARP-2 [4] = biological target: FLAG-PARP-2 (UniProt Q9UGN5); experiment: co-IP; data not shown: FLAG-PARP-2 immunoprecipitate probed by western blot for PARP-1; control immunoprecipitate beside it

Chains of the proteins cited; added tags and fusions are not shown. Residues count along the entry.
UniProt Q9UGN5: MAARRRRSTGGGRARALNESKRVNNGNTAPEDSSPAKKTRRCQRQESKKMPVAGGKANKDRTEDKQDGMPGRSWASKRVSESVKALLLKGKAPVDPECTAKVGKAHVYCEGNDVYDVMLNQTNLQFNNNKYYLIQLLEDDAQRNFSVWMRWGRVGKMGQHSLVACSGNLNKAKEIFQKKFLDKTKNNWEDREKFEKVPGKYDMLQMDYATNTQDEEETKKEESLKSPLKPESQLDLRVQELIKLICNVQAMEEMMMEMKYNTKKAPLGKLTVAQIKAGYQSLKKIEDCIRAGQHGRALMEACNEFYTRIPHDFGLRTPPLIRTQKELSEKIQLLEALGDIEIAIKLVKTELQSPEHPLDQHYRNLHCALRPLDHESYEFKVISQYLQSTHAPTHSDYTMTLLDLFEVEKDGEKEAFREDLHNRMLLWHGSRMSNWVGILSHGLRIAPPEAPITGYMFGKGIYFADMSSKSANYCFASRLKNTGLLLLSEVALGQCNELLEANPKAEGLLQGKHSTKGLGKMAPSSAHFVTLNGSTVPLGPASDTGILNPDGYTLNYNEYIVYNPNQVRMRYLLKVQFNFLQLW
UniProt P09874: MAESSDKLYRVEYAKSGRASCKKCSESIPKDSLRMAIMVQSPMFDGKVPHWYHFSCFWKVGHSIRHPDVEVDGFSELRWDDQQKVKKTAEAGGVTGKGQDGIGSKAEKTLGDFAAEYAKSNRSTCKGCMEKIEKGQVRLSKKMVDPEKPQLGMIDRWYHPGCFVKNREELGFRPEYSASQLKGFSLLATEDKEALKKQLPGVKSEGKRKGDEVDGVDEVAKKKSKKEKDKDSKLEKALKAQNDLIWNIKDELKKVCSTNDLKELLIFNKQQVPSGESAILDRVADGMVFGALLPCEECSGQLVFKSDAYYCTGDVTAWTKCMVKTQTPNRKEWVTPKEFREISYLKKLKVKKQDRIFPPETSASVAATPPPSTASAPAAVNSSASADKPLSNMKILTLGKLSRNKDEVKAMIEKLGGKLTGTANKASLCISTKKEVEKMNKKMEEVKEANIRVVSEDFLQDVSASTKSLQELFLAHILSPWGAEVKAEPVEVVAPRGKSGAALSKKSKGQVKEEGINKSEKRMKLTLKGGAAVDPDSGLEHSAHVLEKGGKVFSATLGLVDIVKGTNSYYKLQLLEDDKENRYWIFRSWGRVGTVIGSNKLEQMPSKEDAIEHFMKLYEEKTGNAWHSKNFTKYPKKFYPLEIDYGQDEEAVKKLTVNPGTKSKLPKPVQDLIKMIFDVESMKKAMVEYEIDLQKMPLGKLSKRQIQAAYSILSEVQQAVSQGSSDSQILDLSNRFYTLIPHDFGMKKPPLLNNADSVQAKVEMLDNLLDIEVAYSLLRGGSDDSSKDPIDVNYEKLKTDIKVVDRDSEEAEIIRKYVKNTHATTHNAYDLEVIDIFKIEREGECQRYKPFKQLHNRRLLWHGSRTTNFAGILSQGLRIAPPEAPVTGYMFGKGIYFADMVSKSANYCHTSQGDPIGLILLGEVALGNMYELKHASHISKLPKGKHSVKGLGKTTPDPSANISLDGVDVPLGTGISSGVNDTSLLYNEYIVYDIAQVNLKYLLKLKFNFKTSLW
UniProt P12956: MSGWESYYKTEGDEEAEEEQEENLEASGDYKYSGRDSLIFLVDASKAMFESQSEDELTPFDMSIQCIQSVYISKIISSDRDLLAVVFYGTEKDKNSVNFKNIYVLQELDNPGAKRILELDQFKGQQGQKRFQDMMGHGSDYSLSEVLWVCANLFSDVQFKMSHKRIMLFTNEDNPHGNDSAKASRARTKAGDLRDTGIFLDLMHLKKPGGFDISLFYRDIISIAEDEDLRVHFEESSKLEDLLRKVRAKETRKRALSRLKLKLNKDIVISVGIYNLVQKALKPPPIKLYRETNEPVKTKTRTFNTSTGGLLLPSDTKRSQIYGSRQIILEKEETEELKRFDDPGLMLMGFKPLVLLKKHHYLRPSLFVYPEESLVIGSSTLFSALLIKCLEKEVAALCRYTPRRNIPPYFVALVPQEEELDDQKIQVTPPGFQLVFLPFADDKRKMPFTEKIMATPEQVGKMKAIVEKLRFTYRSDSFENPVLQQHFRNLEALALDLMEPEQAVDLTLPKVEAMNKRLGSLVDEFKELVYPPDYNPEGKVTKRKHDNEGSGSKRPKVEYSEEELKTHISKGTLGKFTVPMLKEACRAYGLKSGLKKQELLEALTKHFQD
UniProt O95831, residues 102-613: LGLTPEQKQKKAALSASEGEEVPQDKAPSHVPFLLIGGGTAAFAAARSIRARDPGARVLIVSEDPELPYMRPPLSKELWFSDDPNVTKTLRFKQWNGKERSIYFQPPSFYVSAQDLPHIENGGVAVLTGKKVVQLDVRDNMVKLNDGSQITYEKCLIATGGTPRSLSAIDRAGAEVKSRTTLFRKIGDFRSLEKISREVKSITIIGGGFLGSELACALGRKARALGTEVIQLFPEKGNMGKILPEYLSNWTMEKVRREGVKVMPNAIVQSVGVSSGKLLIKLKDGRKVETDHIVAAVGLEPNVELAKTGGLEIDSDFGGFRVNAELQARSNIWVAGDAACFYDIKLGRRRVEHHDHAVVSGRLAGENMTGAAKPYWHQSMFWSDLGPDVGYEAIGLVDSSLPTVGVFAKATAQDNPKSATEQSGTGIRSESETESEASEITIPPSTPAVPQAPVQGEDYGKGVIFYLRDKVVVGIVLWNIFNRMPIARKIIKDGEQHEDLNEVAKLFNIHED
UniProt P13010: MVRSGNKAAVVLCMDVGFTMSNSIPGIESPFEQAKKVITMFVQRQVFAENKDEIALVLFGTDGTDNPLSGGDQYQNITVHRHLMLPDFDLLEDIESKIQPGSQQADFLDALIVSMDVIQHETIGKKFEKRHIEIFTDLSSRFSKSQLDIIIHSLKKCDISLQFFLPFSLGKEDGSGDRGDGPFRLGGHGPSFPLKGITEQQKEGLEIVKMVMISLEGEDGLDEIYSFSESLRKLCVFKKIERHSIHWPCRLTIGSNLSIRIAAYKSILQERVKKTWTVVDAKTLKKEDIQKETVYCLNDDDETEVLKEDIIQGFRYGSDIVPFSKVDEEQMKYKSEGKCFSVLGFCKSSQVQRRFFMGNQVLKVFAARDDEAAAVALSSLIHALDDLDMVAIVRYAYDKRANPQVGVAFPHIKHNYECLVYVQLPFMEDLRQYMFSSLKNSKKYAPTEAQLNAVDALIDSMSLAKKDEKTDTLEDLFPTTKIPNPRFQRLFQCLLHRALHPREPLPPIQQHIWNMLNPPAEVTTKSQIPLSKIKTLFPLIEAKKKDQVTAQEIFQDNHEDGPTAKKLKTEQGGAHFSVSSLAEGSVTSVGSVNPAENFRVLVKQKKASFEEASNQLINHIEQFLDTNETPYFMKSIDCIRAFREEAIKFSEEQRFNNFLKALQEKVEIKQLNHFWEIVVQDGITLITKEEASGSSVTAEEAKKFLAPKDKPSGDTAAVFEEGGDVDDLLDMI
UniProt Q9NYF8: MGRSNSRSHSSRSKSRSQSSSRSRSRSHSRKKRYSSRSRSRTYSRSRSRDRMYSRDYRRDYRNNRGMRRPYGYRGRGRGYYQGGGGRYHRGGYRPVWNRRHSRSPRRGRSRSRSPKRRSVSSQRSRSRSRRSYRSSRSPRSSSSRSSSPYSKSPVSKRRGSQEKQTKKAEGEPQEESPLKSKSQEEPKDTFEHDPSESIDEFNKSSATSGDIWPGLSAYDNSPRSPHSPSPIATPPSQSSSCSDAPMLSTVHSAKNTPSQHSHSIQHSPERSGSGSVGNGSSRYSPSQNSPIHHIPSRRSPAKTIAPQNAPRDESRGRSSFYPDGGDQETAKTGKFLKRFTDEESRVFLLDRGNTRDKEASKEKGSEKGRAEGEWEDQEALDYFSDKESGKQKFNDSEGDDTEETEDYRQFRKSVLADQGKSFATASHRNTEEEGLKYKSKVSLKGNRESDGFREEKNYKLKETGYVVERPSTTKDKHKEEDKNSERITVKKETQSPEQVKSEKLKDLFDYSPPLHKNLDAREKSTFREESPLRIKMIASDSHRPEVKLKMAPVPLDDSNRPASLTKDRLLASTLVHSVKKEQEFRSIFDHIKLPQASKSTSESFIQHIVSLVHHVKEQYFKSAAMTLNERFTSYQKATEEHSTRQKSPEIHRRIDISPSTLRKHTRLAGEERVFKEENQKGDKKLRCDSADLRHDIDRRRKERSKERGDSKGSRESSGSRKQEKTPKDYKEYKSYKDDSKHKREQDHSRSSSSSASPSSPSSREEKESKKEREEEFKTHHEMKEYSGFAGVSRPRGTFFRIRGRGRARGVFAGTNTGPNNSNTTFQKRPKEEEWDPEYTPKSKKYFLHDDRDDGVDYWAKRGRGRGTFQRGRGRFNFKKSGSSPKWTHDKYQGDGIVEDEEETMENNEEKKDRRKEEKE
UniProt P19838, residues 1-433: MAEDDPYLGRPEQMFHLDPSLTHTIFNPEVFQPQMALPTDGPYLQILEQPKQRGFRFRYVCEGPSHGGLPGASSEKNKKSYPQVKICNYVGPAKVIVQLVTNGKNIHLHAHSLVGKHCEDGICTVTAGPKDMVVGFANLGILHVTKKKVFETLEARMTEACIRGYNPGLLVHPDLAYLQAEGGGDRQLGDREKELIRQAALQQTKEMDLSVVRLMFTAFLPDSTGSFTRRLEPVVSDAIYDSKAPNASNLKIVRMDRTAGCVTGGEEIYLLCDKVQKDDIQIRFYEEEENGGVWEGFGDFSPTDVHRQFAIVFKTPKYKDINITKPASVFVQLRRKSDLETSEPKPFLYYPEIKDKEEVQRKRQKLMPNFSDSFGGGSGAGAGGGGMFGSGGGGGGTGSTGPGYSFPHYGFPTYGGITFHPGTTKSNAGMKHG
UniProt P42224: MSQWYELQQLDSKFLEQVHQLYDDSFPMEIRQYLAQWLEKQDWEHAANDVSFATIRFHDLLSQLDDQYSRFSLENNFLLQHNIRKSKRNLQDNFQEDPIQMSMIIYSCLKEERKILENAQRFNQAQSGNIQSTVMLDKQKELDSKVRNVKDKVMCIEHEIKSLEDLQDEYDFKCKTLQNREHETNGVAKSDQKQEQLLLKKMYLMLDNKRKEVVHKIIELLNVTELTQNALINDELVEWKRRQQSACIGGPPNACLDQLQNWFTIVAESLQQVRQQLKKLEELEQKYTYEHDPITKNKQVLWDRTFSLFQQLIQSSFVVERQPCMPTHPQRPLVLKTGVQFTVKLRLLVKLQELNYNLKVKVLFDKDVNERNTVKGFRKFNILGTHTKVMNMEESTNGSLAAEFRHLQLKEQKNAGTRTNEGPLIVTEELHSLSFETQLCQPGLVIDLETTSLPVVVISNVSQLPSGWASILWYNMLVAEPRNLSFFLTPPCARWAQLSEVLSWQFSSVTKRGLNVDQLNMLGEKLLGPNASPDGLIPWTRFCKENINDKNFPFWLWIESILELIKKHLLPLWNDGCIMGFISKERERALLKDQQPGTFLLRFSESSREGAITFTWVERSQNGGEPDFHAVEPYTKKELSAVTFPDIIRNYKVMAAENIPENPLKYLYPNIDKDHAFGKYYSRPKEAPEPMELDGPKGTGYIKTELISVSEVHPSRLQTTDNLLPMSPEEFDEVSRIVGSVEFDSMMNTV

binding (FLAG-PARP-2 [1]) | Molecule | further results
binds | ATP-dependent DNA helicase II 70 kDa subunit (from UniProt P12956 1-609) | –
binds | Apoptosis-inducing factor (from UniProt O95831 102-613) | binding [2]: binds weakly

The next lines start with the molecule.

Molecule | binding (FLAG-PARP-2 [1]) | further results
ATP-dependent DNA helicase II 80 kDa subunit (from UniProt P13010 1-732) | binds | –
Bcl-2-associated transcription factor 1 (from UniProt Q9NYF8 1-920) | binds | binding [2]: binds
Nuclear factor kappa B subunit p50 (from UniProt P19838 1-433) | – | binding [3]: binds
Poly(ADP-ribose) polymerase 1 (PARP-1) (from UniProt P09874 1-1014) (enzyme) | – | binding (FLAG-PARP-2 [4]): binds
Signal transducer and activator of transcription 1-alpha/beta (from UniProt P42224 1-750) | binds | –
Replication factor C subunit 1 (protein, UniProt P35251 1-1148) MDIRKFFGVIPSGKKLVSETVKKNEKTKSDEETLKAKKGIKEIKVNSSRKEDDFKQKQPSKKKRIIYDSDSESEETLQVKNAKKPPEKLPVSSKPGKISRQDPVTYISETDEEDDFMCKKAASKSKENGRSTNSHLGTSNMKKNEENTKTKNKPLSPIKLTPTSVLDYFGTGSVQRSNKKMVASKRKELSQNTDESGLNDEAIAKQLQLDEDAELERQLHEDEEFARTLAMLDEEPKTKKARKDTEAGETFSSVQANLSKAEKHKYPHKVKTAQVSDERKSYSPRKQSKYESSKESQQHSKSSADKIGEVSSPKASSKLAIMKRKEESSYKEIEPVASKRKENAIKLKGETKTPKKTKSSPAKKESVSPEDSEKKRTNYQAYRSYLNREGPKALGSKEIPKGAENCLEGLIFVITGVLESIERDEAKSLIERYGGKVTGNVSKKTNYLVMGRDSGQSKSDKAAALGTKIIDEDGLLNLIRTMPGKKSKYEIAVETEMKKESKLERTPQKNVQGKRKISPSKKESESKKSRPTSKRDSLAKTIKKETDVFWKSLDFKEQVAEETSGDSKARNLADDSSENKVENLLWVDKYKPTSLKTIIGQQGDQSCANKLLRWLRNWQKSSSEDKKHAAKFGKFSGKDDGSSFKAALLSGPPGVGKTTTASLVCQELGYSYVELNASDTRSKSSLKAIVAESLNNTSIKGFYSNGAASSVSTKHALIMDEVDGMAGNEDRGGIQELIGLIKHTKIPIICMCNDRNHPKIRSLVHYCFDLRFQRPRVEQIKGAMMSIAFKEGLKIPPPAMNEIILGANQDIRQVLHNLSMWCARSKALTYDQAKADSHRAKKDIKMGPFDVARKVFAAGEETAHMSLVDKSDLFFHDYSIAPLFVQENYIHVKPVAAGGDMKKHLMLLSRAADSICDGDLVDSQIRSKQNWSLLPAQAIYASVLPGELMRGYMTQFPTFPSWLGKHSSTGKHDRIVQDLALHMSLRTYSSKRTVNMDYLSLLRDALVQPLTSQGVDGVQDVVALMDTYYLMKEDFENIMEISSWGGKPSPFSKLDPKVKAAFTRAYNKEAHLTPYSLQAIKASRHSTSPSLDSEYNEELNEDDSQSDEKDQDAIETDAMIKKKTKSSKPSKPEKDKEPRKGKGKSSKK | – | binding [3]: binds
